In paper PMC7586679:
Results are given in words; binding and its absence hold for the method and conditions named. In cells and extracts the contact can be indirect. A result given as binding can be weak or reduced; the word gives no strength.

Sequences of proteins named here, by UniProt entry; tags and fusion partners are left off.
UniProt O43791: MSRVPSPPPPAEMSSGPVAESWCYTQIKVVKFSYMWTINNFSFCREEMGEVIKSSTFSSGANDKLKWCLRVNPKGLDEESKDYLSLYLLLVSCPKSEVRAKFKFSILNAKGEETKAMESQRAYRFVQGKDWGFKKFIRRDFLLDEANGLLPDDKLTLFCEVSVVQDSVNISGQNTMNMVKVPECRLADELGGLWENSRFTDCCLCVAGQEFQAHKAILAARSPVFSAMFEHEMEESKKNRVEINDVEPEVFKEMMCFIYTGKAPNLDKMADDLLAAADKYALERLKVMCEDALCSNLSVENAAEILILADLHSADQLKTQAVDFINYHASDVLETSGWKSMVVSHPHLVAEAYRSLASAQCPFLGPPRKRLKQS

Molecular target: HA-tagged SPOP (WT) (UniProt O43791)
Test: co-IP; 293T cells transfected 24 h with SPOP WT and FLAG-c-Myc or ΔSBC1/ΔSBC2; Bortezomib (250 nM) for 6 h; total cell lysates; IP with anti-FLAG or anti-SPOP antibodies

binding | Substance
no binding | FLAG-c-Myc mutated at SBC1 (ΔSBC1) (from UniProt P01106-2)
binds weakly | FLAG-c-Myc mutated at SBC2 (ΔSBC2) (from UniProt P01106-2)
